Measured values taken from publication PMC11491298.
Results are given in words; binding and its absence hold for the method and conditions named. In cells and extracts the contact can be indirect. Some entries that bind do so weakly or less than the wild type.

Chains of the proteins cited; added tags and fusions are not shown.
UniProt P52480: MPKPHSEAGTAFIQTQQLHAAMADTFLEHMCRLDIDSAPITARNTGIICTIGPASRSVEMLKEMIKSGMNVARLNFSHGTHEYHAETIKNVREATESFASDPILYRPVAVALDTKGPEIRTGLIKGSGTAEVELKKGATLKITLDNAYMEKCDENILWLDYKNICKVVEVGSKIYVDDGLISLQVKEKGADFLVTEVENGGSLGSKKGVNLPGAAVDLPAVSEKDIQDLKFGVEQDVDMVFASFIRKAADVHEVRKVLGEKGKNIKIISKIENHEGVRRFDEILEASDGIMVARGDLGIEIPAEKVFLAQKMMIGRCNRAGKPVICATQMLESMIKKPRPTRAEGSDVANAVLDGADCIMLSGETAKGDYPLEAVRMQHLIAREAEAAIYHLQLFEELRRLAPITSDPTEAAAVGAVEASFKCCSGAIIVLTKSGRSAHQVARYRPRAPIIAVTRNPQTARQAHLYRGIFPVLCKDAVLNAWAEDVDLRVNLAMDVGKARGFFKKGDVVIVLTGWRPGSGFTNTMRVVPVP

Legend:
[1] = biological target: pyruvate kinase M2 (PKM2) (mouse (endogenous in primary hippocampal neurons and hippocampal tissue)) (UniProt P52480); test: co-IP; hippocampal tissue of each group of 5xFAD mice (M-exo-sh-NC, M-exo-sh-PKM, oe-NC or oe-DLAT treatments); further conditions not told for tissue
[2] = biological target: pyruvate kinase M2 (PKM2) (mouse (endogenous in primary hippocampal neurons and hippocampal tissue)) (UniProt P52480); test: co-IP; lysate of mouse hippocampal neurons (200 ug protein) in IP lysis buffer with protease and phosphatase inhibitors; incubated overnight at 4°C with anti-PKM2, anti-DLAT or control IgG; captured on Protein A/G PLUS-Agarose; western blot for PKM2 and DLAT

B1: dihydrolipoamide S-acetyltransferase (DLAT) (protein, UniProt Q8BMF4 86-642)
chain: SLPPHQKVPLPSLSPTMQAGTIARWEKKEGEKISEGDLIAEVETDKATVGFESLEECYMAKILVPEGTRDVPVGSIICITVEKPQDIEAFKNYTLDLAAAAAPQAAPAAAPAPAAAPAAPSASAPGSSYPTHMQIVLPALSPTMTMGTVQRWEKKVGEKLSEGDLLAEIETDKATIGFEVQEEGYLAKILVPEGTRDVPLGAPLCIIVEKQEDIAAFADYRPTEVTSLKPQAAPPAPPPVAAVPPTPQPVAPTPSAAPAGPKGRVFVSPLAKKLAAEKGIDLTQVKGTGPEGRIIKKDIDSFVPSKAAPAAAAAMAPPGPRVAPAPAGVFTDIPISNIRRVIAQRLMQSKQTIPHYYLSVDVNMGEVLLVRKELNKMLEGKGKISVNDFIIKASALACLKVPEANSSWMDTVIRQNHVVDVSVAVSTPAGLITPIVFNAHIKGLETIASDVVSLASKAREGKLQPHEFQGGTFTISNLGMFGIKNFSAIINPPQACILAIGASEDKLIPADNEKGFDVASVMSVTLSCDHRVVDGAVGAQWLAEFKKYLEKPITMLL
[1]
  binding: binds
[2]
  binding: binds
